The campaign covered roughly 400,000 compounds. About 13,000 (3.2%) were called active. Inconclusive results, whose numbers are uncertain, are shown with a selection of clear calls. Calls come from the whole dose curve; as a rule, active = well fitted cell-killing curve with a large enough effect; inconclusive = small, poorly fitted or top-dose-only effect, or effect the other way; inactive = flat fitted curve, though single readings scatter. A potency beside an inconclusive call is a rough fit, not a confirmed value.
Test: qHTS assay for MDR1-selective chemotherapeutics: Primary screen using the drug-selected MDR subline cells KB-V1; note: nearly all actives have a fitted effect of over 60% in size
Conditions: KB-V1 MDR cells viability, CellTiter-Glo, 72 h; activity change, negative = cytotoxicity: at 46.1 µM (top of the series)
Summary of the method: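 qHTS viability screen in drug-selected KB-V1 MDR cells: 72 h compound treatment at 37 degrees C, ATP luminescence end point.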
% is set by controls: 0 for no effect and ±100 for the full control effect; potency is the fitted concentration of half-maximal effect.

| Structure (SMILES) | activity change, negative = cytotoxicity | Potency |
| --- | --- | --- |
| CCc1ccccc1NC(=O)Cn1cc(S(=O)(=O)N2CCCC2)c(S(=O)(=O)N2CCCC2)c1 | inactive: 7.77% | – |
| CCn1c(-c2nonc2NC(=O)c2ccccc2)nc2ccccc21 | – | inconclusive: 0.58 µM [cytotoxic, partial curve, poor fit] |
| CC(C)Nc1nc2ccccc2c(=O)[nH]1 | inactive: -5.51% | – |
| CCOCCCNC(=O)C(c1ccccc1)N(Cc1ccc2c(c1)OCO2)C(=O)c1ccc(NC(C)=O)cc1 (stereo not given) | – | inconclusive: 16.4 µM [rising, partial curve, poor fit] |
| CC(=O)NCc1ccc(S(=O)(=O)NC(C)CCc2ccccc2)cc1 (stereo not given) | – | inconclusive: 29.1 µM [rising, single point] |
| Cc1nn(C)c(C)c1S(=O)(=O)NC1CCCc2ccccc21 (stereo not given) | – | inconclusive: 29.1 µM [cytotoxic, single point] |
| CC(C)(C)c1nnc2sc(SCC(=O)N3CCCc4ccccc43)nn2c1=O | – | inconclusive: 18.4 µM [cytotoxic, partial curve, poor fit] |
| CC1CCC(NC(=O)c2cccc(S(=O)(=O)N3CCN(C)CC3)c2)CC1 (stereo not given) | – | inconclusive: 8.2 µM [cytotoxic, partial curve] |
| Cc1cc(C)c(C(=O)NCCCN2CCOCC2)c(C)c1 | – | inconclusive: 29.1 µM [rising, single point] |
| Cc1ccc(CN2C(=O)CCC2(C)c2nnnn2-c2ccc3c(c2)OCCO3)cc1 (stereo not given) | inactive: -29% | – |
| CC(=O)c1cc2c(O)c(O)ccc2o1 | – | inconclusive: 32.6 µM [cytotoxic, single point] |
| CCOC(=O)CSc1ccc2ccccc2n1 | inactive: -3.67% | – |
| Cc1cccc2cc(CN(Cc3ccccc3)Cc3nnnn3Cc3ccccc3)c(=O)[nH]c12 | – | inconclusive: 29.1 µM [cytotoxic, single point] |
| C/C(=C\C(=O)c1ccc(Br)cc1)NCc1ccc(C)cc1 | inactive: 16.7% | – |
| CC(O)(CS(=O)(=O)Cc1cccc(C(F)(F)F)c1)C(=O)Nc1cccc(C(F)(F)F)c1 (stereo not given) | – | inconclusive: 20.6 µM [cytotoxic, single point] |
| CC(C)c1ccc(NC(=O)C2(C)Cc3c(-c4ccc(C(N)=O)cc4)ccnc3O2)cc1 (stereo not given) | inactive: -9.95% | – |
| O=C(CCCN1CCN(c2ccccc2)CC1)c1ccc(F)cc1 | inactive: -13.5% | – |
| CCOc1ccccc1NC(=O)COC(=O)COc1c(Cl)cc(Cl)c2ccc(C)nc12 | inactive: -6.65% | – |
| CCCOc1ccc(-c2cccc(NS(=O)(=O)c3ccccc3)c2)nn1 | – | inconclusive: 20.6 µM [cytotoxic, partial curve] |
| Cc1nc2[nH]c(=S)n(C)c(=O)c2nc1C | inactive: -11.9% | – |
| Cc1ccc(S(=O)(=O)N(CC(=O)N/N=C/c2cccc(Cl)c2)c2cccc3cccnc23)cc1 | – | inconclusive: 20.6 µM [cytotoxic, single point] |
| COC(=O)c1ccc(C(=O)N2CCCC(N3CCN(c4ccc(F)cc4)CC3)C2)nc1 (stereo not given) | inactive: -8.99% | – |
| CN(CC(=O)Nc1ccc(Cl)c(C(F)(F)F)c1)C(=O)c1cccc2cccnc12 | – | active: 18.4 µM |

Structures shown so far with a CF3 group, in the order listed:

| Structure (SMILES) | activity change, negative = cytotoxicity | Potency |
| --- | --- | --- |
| CC(O)(CS(=O)(=O)Cc1cccc(C(F)(F)F)c1)C(=O)Nc1cccc(C(F)(F)F)c1 (stereo not given) | – | inconclusive: 20.6 µM [cytotoxic, single point] |
| CN(CC(=O)Nc1ccc(Cl)c(C(F)(F)F)c1)C(=O)c1cccc2cccnc12 | – | active: 18.4 µM |

Additional entries.

| Structure (SMILES) | activity change, negative = cytotoxicity | Potency |
| --- | --- | --- |
| Fc1cccc(Cl)c1Cn1nnc2c(NCc3ccncc3)ncnc21 | inactive: -10.3% | – |
| Cc1ccc(NC2=C(Cl)C(=O)OC2OC(=O)c2ccccc2)c(C)c1 (stereo not given) | – | inconclusive: 20.6 µM [rising, single point] |
| Nc1cc(Br)c(N)c(Br)c1 | – | inconclusive: 20.6 µM [rising, partial curve] |
| CCOC(=O)c1c(C)[nH]c(C)c1C(=O)COC(=O)c1nn(CC)c(=O)c2ccccc12 | – | inconclusive: 10.3 µM [rising, partial curve] |
| CN1c2ccsc2/C(=N/Nc2ccccc2)CS1(=O)=O | – | inconclusive: 25.9 µM [rising, single point] |
| COc1cc(NC(C(=O)Nc2cccc(C(C)=O)c2)c2ccccc2)cc(OC)c1OC (stereo not given) | – | active: 4.61 µM |
| COc1ccc(C(=O)Cc2cc(OC)c(OC)cc2[N+](=O)[O-])c(OC)c1 | – | inconclusive: 29.1 µM [cytotoxic, single point] |
| CCOc1ccc(-c2nnc(SCC(=O)N3CCCC3)o2)cc1 | – | inconclusive: 8.2 µM [cytotoxic, partial curve] |
| O=C(Cc1ccc(F)cc1)Nc1nc(-c2ccc(F)c(F)c2)cs1 | inactive: 12.4% | – |
| Cc1ccc(S(=O)(=O)N2CCN(c3nc(-c4cccs4)nc(C)c3C)CC2)cc1 | inactive: 0% | – |
| COc1ccc2c(Cl)c(C(=O)N/N=C/c3c(C)[nH]c4ccccc34)sc2c1 | – | inconclusive: 18.4 µM [cytotoxic, single point] |
| Cc1cccc(NC(=O)Nc2cnccn2)c1C | – | inconclusive: 16.4 µM [cytotoxic, partial curve] |
| CC1=Nc2ccccc2N=C(NC(=O)CSC(=S)N2CCCCC2)C1c1ccccc1 (stereo not given) | – | inconclusive: 9.2 µM [cytotoxic, partial curve, poor fit] |
| CCN1C(=O)CC(c2ccc(OC(C)C)cc2)C1=O (stereo not given) | – | inconclusive: 11.6 µM [rising, partial curve, poor fit] |
| COCc1c(C(=O)OCc2nc3ccsc3c(=O)[nH]2)oc2ccccc12 | – | inconclusive: 29.1 µM [rising, single point] |
| COc1ccc(-c2c(C)nc3c(-c4ccccn4)cnn3c2N)cc1 | inactive: -25.8% | – |
| COc1cc(CC(=O)OCC(=O)Nc2ccc(N(C)C)cc2)cc(OC)c1OC | inactive: 8.43% | – |
| Cc1ccc(C2C(C#N)=C(N)N(c3cccnc3)C3=C2C(=O)CCC3)c(C)c1 (stereo not given) | inactive: -6.93% | – |
| COC(=O)[C@@]1(Cc2ccc(F)cc2)[C@H]2c3cc(C(=O)N4CCCC4)n(C)c3C[C@H]2CN1C(=O)c1ccccc1 | – | inconclusive: 23.1 µM [cytotoxic, partial curve, poor fit] |
| O=C(c1cccc(N2CCCC2=O)c1)N1CCN(c2ccc(F)cc2)CC1 | – | inconclusive: 16.4 µM [cytotoxic, single point] |
| O=C(C[C@H]1C/C=C\C[C@H](Cc2ccc(F)cc2)C(=O)O[C@@H](c2ccccc2)CNC1=O)N[C@@H](CO)Cc1ccccc1 | – | inconclusive: 29.1 µM [rising, single point] |
| Cc1ccccc1C(=O)NCC(=O)OC(C)C(=O)NC(C)CCc1ccccc1 (stereo not given) | inactive: 12.8% | – |

Reference: PubChem BioAssay AID1347076 (National Center for Advancing Translational Sciences (NCATS), 2019)
